Test results from article PMC12113829.

Biological target: HLP_(PM19-ΔTM) fused to the Gal4 binding domain ('Candidatus Phytoplasma mali' strain PM19)
Assay: two-hybrid; library-scale screen, Matchmaker Gold; bait BD-HLP_PM19 134-428 (pGBKT7), prey normalized A. thaliana library (pGADT7); selection on aureobasidin A, alpha-galactosidase, media lacking histidine and adenine

B1: A. thaliana translocase of chloroplast 33 fused to the Gal4 activation domain (protein, UniProt O23680 1-297)
chain: MGSLVREWVGFQQFPAATQEKLIEFFGKLKQKDMNSMTVLVLGKGGVGKSSTVNSLIGEQVVRVSPFQAEGLRPVMVSRTMGGFTINIIDTPGLVEAGYVNHQALELIKGFLVNRTIDVLLYVDRLDVYRVDELDKQVVIAITQTFGKEIWCKTLLVLTHAQFSPPDELSYETFSSKRSDSLLKTIRAGSKMRKQEFEDSAIAVVYAENSGRCSKNDKDEKALPNGEAWIPNLVKAITDVATNQRKAIHVDKKMVDGSYSDDKGKKLIPLIIGAQYLIVKMIQGAIRNDIKTSGKPL
With B1 the binding was “binds”.

These are yes or no findings as the source states them, for the method shown. Binding can be weak; no strength is given. Sequences can lack the tags named with a protein.
